Assay [1] deals with T1, Rec114C (residues 375–428 of yeast Rec114) (Saccharomyces cerevisiae) (UniProt P32841).
T1 sequence: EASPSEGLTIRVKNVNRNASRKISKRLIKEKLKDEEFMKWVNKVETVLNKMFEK
The assay can be described thus: NMR (HSQC spectra, backbone assignment) of the purified complex; 15N or 15N-13C labelled co-purified complex; 25 mM HEPES-NaOH pH 7.4, 100 mM NaCl, 0.5 mM EDTA, 1 mM TCEP, 25 °C; Rec114(388–428)–Mei4(13–43) assigned in 25 mM NaHPO4 pH 6.1, 100 mM NaCl; both purified.

Assay [2] addresses T2, Rec114_(388–428) (Saccharomyces cerevisiae) (UniProt P32841).
T2 sequence: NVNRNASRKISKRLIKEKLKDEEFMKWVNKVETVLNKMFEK
The assay can be described thus: co-purification after co-expression (cobalt affinity, SEC); co-expressed in E. coli BL21(DE3) from a pETDuet-based vector with a 6XHis-SUMO tag; cobalt resin in 25 mM HEPES-NaOH pH 7.4, 500 mM NaCl; tag cleaved with Ulp1; Superdex 200 Increase in 25 mM HEPES-NaOH pH 7.4, 100 mM NaCl; fractions checked by SDS-PAGE.

For assay [3], the target named is T2, Rec114_(388–428) (Saccharomyces cerevisiae). The assay can be described thus: NMR (HSQC spectra, backbone assignment) of the purified complex; 15N or 15N-13C labelled co-purified complex; 25 mM HEPES-NaOH pH 7.4, 100 mM NaCl, 0.5 mM EDTA, 1 mM TCEP, 25 °C; Rec114(388–428)–Mei4(13–43) assigned in 25 mM NaHPO4 pH 6.1, 100 mM NaCl; both purified.
For assay [4], the target named is T3, mREC114C (mouse REC114 residues 203–259) (mouse) (UniProt Q9CWH4).
T3 sequence: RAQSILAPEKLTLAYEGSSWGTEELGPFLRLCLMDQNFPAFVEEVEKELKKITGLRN
The assay can be described thus: co-purification after co-expression (cobalt affinity, SEC); co-expressed in E. coli BL21(DE3) from a pETDuet-based vector with a 6XHis-SUMO tag; cobalt resin in 25 mM HEPES-NaOH pH 7.4, 500 mM NaCl; tag cleaved with Ulp1; Superdex 200 Increase in 25 mM HEPES-NaOH pH 7.4, 100 mM NaCl; fractions checked by SDS-PAGE.

In assay [5] the target is T4, Rec114_(388–428) K399A/R400A (Saccharomyces cerevisiae) (UniProt P32841).
T4 sequence: T2 sequence with K12A, R13A
The assay is described as above.

The target of assay [6] is T5, Rec114_(388–428) R395A/K396A (Saccharomyces cerevisiae) (UniProt P32841).
T5 sequence: T2 sequence with R8A, K9A
The assay is described as above.

The target of assay [7] is T6, Rec114_(388–428) K403A/K407A (Saccharomyces cerevisiae) (UniProt P32841).
T6 sequence: T2 sequence with K16A, K20A
The description is as above.

The target of assay [8] is T7, Rec114_(388–428) K417A/K424A (Saccharomyces cerevisiae) (UniProt P32841).
T7 sequence: T2 sequence with K30A, K37A
Described as above.

The target of assay [9] is T1, Rec114C (residues 375–428 of yeast Rec114) (Saccharomyces cerevisiae). The assay is described as above.
Assay [10] concerns the target T8, Rec114_(325–428) (Saccharomyces cerevisiae) (UniProt P32841).
T8 sequence: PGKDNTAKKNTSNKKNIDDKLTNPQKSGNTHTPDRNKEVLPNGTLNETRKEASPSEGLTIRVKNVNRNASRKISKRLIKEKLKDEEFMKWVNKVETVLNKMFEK
Described as above.

Where a chain is given by its changes, count along the chain named. Results are given in words; binding and its absence hold for the method and conditions named. Some binding calls cover weakened binding; strength is not graded here. For part of these data: Where a sequence is shown, tags or fusion partners need not be part of it.

B1: Rec114C (residues 375–428 of yeast Rec114) (domain or fragment, UniProt P32841 375-428)
chain: T1 sequence
B1: in assay [1], the binding entry is recorded as “binds”.

B2: Mei4_(13–43) (domain or fragment, UniProt P29467 13-43)
chain: ETSEVDWIICFALIQSRNPTLWKRALSRKKG
On to B2, for which the binding entry in assay [2], in assay [3] and in assay [1] was “binds” in each case.

B3: mMEI4N (mouse MEI4 residues 1–42) (domain or fragment, UniProt Q8BRM6 1-42)
chain: MDIQPWYLKTSKLALALAIIHSKPADRSSREYTEYLASLVTQ
Take B3: the binding result in assay [4] is listed as “binds”.

B4: Mei4N (residues 1–43 of yeast Mei4) (domain or fragment, UniProt P29467 1-43)
chain: MSRGKLEDMEQKETSEVDWIICFALIQSRNPTLWKRALSRKKG
For the molecule B4, the binding entry in assay [5], in assay [2], in [6], in [7], in [8] and in assay [9] was “binds” each time. The binding result in [3] and in [1] was “binds” each time.

B5: Mei4N with a C-terminal ybbR tag (without the fluorophore) (domain or fragment, UniProt P29467 1-43)
chain: B4 chain
As to B5, the binding entry in assay [1] is recorded as “binds”.

B6: Mei4_(1–90) (domain or fragment, UniProt P29467 1-90)
chain: MSRGKLEDMEQKETSEVDWIICFALIQSRNPTLWKRALSRKKGDVEDVGALKSEKNLKINPRENSKHIYKWVAPFENGFLNNKSLFAHLE
As for B6, the binding entry in assay [10] is “binds”.

These data come from doi:10.1101/2023.01.18.524603.
